These are yes or no findings as the source states them, for the method shown. In cells and extracts the contact can be indirect. Some binding calls cover weakened binding; strength is not graded here.

Chains of the proteins cited; added tags and fusions are not shown. Residues count along the entry.
UniProt Q99523, residues 78-831: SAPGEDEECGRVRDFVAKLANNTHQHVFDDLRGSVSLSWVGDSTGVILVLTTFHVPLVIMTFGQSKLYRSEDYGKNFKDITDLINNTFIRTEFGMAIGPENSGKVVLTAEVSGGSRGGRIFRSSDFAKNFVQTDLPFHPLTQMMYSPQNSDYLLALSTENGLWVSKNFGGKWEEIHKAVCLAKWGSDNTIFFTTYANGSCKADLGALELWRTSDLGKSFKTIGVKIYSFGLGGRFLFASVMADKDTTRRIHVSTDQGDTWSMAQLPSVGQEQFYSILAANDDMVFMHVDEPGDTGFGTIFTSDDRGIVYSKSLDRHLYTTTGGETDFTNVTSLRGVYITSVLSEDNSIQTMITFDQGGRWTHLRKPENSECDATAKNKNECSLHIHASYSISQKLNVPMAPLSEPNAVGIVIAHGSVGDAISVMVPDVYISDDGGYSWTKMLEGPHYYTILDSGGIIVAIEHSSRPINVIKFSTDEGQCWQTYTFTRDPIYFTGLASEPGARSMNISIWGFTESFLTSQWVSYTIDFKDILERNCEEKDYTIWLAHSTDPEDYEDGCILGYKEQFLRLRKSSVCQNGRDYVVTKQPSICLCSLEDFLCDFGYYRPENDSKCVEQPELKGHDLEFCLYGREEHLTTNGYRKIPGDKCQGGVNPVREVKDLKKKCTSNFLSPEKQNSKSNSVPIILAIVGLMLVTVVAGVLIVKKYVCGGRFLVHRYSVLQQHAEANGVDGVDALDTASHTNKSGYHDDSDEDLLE

This test concerns the target SORT1-Flag (sortilin with C-terminal Flag tag), in HEK293T lysate (human) (UniProt Q99523). Kind of test: co-IP; 300 ug lysate of HEK293T cells with SORT1-Flag, pre-incubated 1 h with or without 20 uM NTS, human PGRN(588-593) or mouse PGRN(584-589) peptide; rPGRN 100 nM added for 30 min; anti-Flag M2 agarose 4 h; western blot; only the binder purified.
Take ALRQLL [human PGRN_(588-593) peptide]: the binding result is “binds”.
As to VPRPLL [mouse Pgrn_(584-589) peptide], the binding result is on record as “binds”.
The value for ELYENKPRRPYIL [neurotensin (NTS)] was “binds”.

The record behind these values is publication PMC3929086, “Targeted manipulation of the sortilin–progranulin axis rescues progranulin haploinsufficiency” (Human Molecular Genetics, 2013).
